Measurements as given in PubChem BioAssay AID493014 (National Center for Advancing Translational Sciences (NCATS), 2011).
The other results are listed elsewhere or left out. The main result of the screen is listed elsewhere. These columns were measured beside it and carry no call. The list favours compounds with an active or inconclusive main result. Potencies come from curve fits of mixed quality, noted in brackets.

Test: qHTS Assay to Find Inhibitors of Chronic Active B-Cell Receptor Signaling
Conditions: ABC-DLBCL IkBa-CBG/CBR reporter, luminescence ratio (green luciferase fused to IkBa over red control in TMD8 lymphoma cells), 4 h
Method in brief: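 TMD8 human ABC-DLBCL cells with doxycycline-inducible IκBα–green luciferase fusion and unfused red luciferase, in 0.5% FBS medium; compounds up to 46 uM, 4 h at 37C. Green/red luminescence ratio, filter-overlap corrected, fitted to concentration-response curves.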

[1] = measured here: CBR red luminescence, cell number
[2] = measured here: IkBa-CBG green luminescence

| Compound | AC50 [1] | AC50 [2] |
| --- | --- | --- |
| O=Cc1cc(N=Nc2ccccc2Cl)ccc1O | 35.5 µM [rising, single point] | – |
| Cc1cccc(CCNCc2c(C(=O)O)c(C)n(-c3ccccc3)c2C)c1 | 12.6 µM [falling, partial curve, poor fit] | – |
| CCC(=O)N/C(=N/c1nc(C)cc(C)n1)Nc1ccc(C)cc1 | 0.794 µM [rising, full curve, poor fit] | – |
| CC1CCN(S(=O)(=O)c2ccc3ncn(CC(=O)N(C)C4CCCCC4)c(=O)c3c2)CC1 | 2.24 µM [falling, partial curve] | – |
| NS(=O)(=O)c1ccc(NC2=CC(=O)C(=O)c3ccccc32)cc1 | 17.8 µM [falling, single point] | – |
| CCOc1ccc(NC(=S)NNC(=S)Nc2cccc(C(F)(F)F)c2)cc1 | 15.8 µM [rising, single point] | – |
| Cc1cc(C(=O)CCC(=O)Nc2ncccc2O)c(C)s1 | 9.2 µM [falling, partial curve] | – |
| COc1cccc(CNC(=O)c2cc3ccccn3n2)c1 | 4.61 µM [falling, partial curve, poor fit] | – |
| O=C(COc1ccc(Br)cc1)Nc1cccc2cccnc12 | 12.6 µM [rising, partial curve] | – |
| Cc1ccc(NC2=NCC(=O)N2C2CCCC2)cc1 | 35.5 µM [rising, single point] | – |
| C=CCn1cnc2c(nnn2-c2ccc(C)c(Cl)c2)c1=O | 5.62 µM [rising, full curve, poor fit] | – |
| CC(Oc1ccc(Cl)cc1)C(=O)Nc1ccc(S(=O)(=O)Nc2nccs2)cc1 (stereo not drawn) | 10 µM [falling, partial curve, poor fit] | – |
| COc1cccc(NC(=O)Cc2c(C(=O)O)[nH]c3ccccc23)c1 | 6.31 µM [falling, single point] | – |
| CC(/C=N\N1CCN(c2ccc(Cl)cc2)CC1)=C\c1ccccc1 | 6.51 µM [rising, single point] | – |
| COc1ccc(OC)c(CNn2c(-c3cccc(C)c3)nc3ccccc3c2=O)c1 | 1.16 µM [rising, full curve, poor fit] | – |
| COc1ccccc1/C=C/C(=O)NCc1ccccn1 | 14.1 µM [falling, single point] | – |
| CCn1c2ccccc2c2cc(NC(=O)CNCc3ccccc3OC)ccc21 | 31.6 µM [rising, single point] | 17.8 µM [falling, single point] |
| Cc1ccc2nc(NC(=O)CSc3ncc(C(=O)Nc4ccccc4)c(=O)n3C)sc2c1 | 35.5 µM [falling, single point] | – |
| COc1ccccc1NC(=O)Nc1cccc(C(=O)O)c1 | 35.5 µM [falling, single point] | – |
| Cc1ccccc1NC1=C/C(=N\S(=O)(=O)c2cccs2)c2ccccc2C1=O | 0.146 µM [falling, full curve, poor fit] | – |
| O=C(c1ccc([N+](=O)[O-])cc1)N(Cc1ccc(Cl)cc1Cl)N1C(=O)CCCC1=O | 16.4 µM [rising, single point] | – |

Given with each value named: entries from further up
COc1ccc(OC)c(CNn2c(-c3cccc(C)c3)nc3ccccc3c2=O)c1
  AC50 [1]: 1.16 µM [rising, full curve, poor fit]
COc1ccccc1/C=C/C(=O)NCc1ccccn1
  AC50 [1]: 14.1 µM [falling, single point]

Next part:

| Compound | AC50 [1] | AC50 [2] |
| --- | --- | --- |
| CCCCn1c(N)c(N(CCOC)C(=O)CN(C)S(=O)(=O)c2ccc(Cl)cc2)c(=O)[nH]c1=O | 5.01 µM [falling, partial curve, poor fit] | – |
| COc1ccc(NC(=S)NC(NC(=O)c2cccc3ccccc23)C(Cl)(Cl)Cl)c([N+](=O)[O-])c1 (stereo not drawn) | 6.51 µM [falling, single point] | – |
| Cc1cc(NC(=O)CN2C(=O)CC(c3ccco3)Sc3ccccc32)no1 (stereo not drawn) | 20.6 µM [falling, single point] | – |
| Cc1cc(S(=O)(=O)Nc2ccccc2C(=O)O)ccc1Cl | 14.1 µM [rising, partial curve, poor fit] | – |
| O=C(CN1CCN(Cc2ccc3c(c2)OCO3)CC1)c1c[nH]c2ccccc12 | 22.4 µM [falling, single point] | – |
| CCOC(=O)c1sc2nc3c(cc2c1N)COC(C)(CC)C3 (stereo not drawn) | 1.26 µM [falling, full curve, poor fit] | – |
| O=C(C1CCCCC1)N1CCN=C1SCc1cccc([N+](=O)[O-])c1 | 3.55 µM [falling, partial curve, poor fit] | – |
| Cc1ccc(Cn2c(-c3nonc3N)nc3ccccc32)cc1 | 12.6 µM [falling, partial curve] | – |
| COc1cccc(-c2nc(-c3ccccn3)no2)c1OC | 0.366 µM [rising, full curve, poor fit] | – |
| Cc1csc2c(N3CCN(C(=O)Nc4ccc(Cl)c(Cl)c4)CC3)ncnc12 | 8.91 µM [rising, partial curve, poor fit] | – |
| Brc1ccc(C2=Nn3c(nnc3-c3n[nH]c4c3CCC4)SC2)cc1 | 5.8 µM [falling, full curve] | 4.11 µM [falling, partial curve, poor fit] |
| Cc1ccc(C(CC(=O)N2CCCC2)c2ccccc2)c(O)c1C (stereo not drawn) | 29.1 µM [falling, single point] | – |
| Cc1ccc(N(CC(O)Cn2c3ccccc3c3ccccc32)S(C)(=O)=O)cc1 (stereo not drawn) | 29.1 µM [falling, single point] | – |
| CCOc1ccc(S(=O)(=O)NCCCl)cc1 | 12.6 µM [rising, single point] | – |
| COc1ccc(NC(C)=O)cc1NS(=O)(=O)c1cn(C)c(=O)n(C)c1=O | 11.2 µM [rising, single point] | – |
| N#C/C(=N\Nc1cccc(Cl)c1)C(=O)c1ccccc1 | 12.6 µM [falling, partial curve] | – |
| O=C(Nc1cc(Br)ccc1O)c1cc(-c2ccc3c(c2)OCO3)on1 | 4.47 µM [falling, partial curve, poor fit] | – |
| COc1ccccc1-c1nc(C#N)c(N2CCc3ccccc3C2)o1 | 1.84 µM [rising, partial curve, poor fit] | – |
| Oc1ccc(-c2n[nH]c(C(F)(F)F)c2-c2ccccc2)c(O)c1 | 17.8 µM [falling, single point] | – |
| CCOc1ncccc1C(=O)Nc1nnc(C2CC2)s1 | 11.2 µM [falling, partial curve] | – |
